Measured values from patent publication US7759346B2, “[[2-(amino-3,4-dioxo-1-cyclobuten-1-yl)amino]alkyl]-acid derivatives for the treatment of pain” (priority 2001, dated 2010).
Like-named read-outs stand apart in the source and are kept apart here.

What was measured:
Spraque-Dawley rats [1] = experiment: Warm-water tail withdrawal combination studies with morphine; assay type: in vivo, rat; conditions: morphine 5.6 mg/kg IP; vehicle T10 48.9±0.1
Procedure: (§1) The terminal 10 cm of the tail was placed into a thermos bottle containing water warmed to 38, 42, 46, 50, 54, or 58° C. The latency in seconds for the animal to remove the tail from the water was used as a measure of nociception.
Combination compound studies. […] Compounds were administered IP at the same time 30 min before testing.
(§2) Test Method 1 Data Analysis—The temperature that produced a half-maximal increase in the tail-withdrawal latency (i.e., T10) was calculated from each temperature-effect curve. The T10 was determined by interpolation from a line drawn between the point above and the point below 10 sec on the temperature-effect curve. For these studies, thermal hypersensitivity was defined as a leftward shift in the temperature-effect curve and a decrease in the T10 value. Reversal of thermal hypersensitivity was defined as a return to baseline of the temperature-effect curve and the T10 value and was calculated according to the following equation: […]

Spraque-Dawley rats [2] = conditions: rat, in vivo
Procedure: as §1
Following the assessment of baseline thermal sensitivity, thermal hypersensitivity was produced by a 50 μL injection of 0.1 mg prostaglandin E2 (PGE2) into the terminal 1 cm of the tail. Temperature-effect curves were generated before (baseline) and after (15, 30, 60, 90 and 120 min) the PGE2 injection.
Compounds were administered IP at the same time as PGE2, which was administered 30 min before testing.
as §2

Which results are given for `CN1CC[C@]23c4c5ccc(O)c4O[C@H]2[C@@H](O)C=C[C@H]3[C@H]1C5` [Morphine, morphine]?
T10 (temperature producing half-maximal tail-withdrawal latency) (Spraque-Dawley rats [1]): 51.2±0.7; T10 (temperature producing half-maximal tail-withdrawal latency) (Spraque-Dawley rats [2]): 50.6±0.5
